Like-named read-outs stand apart in the source and are kept apart here.

This is an account of results in US5411707A, “Vacuum extractor incorporating a condenser column” (priority 1994, dated 1995).

A short description of series [1]: Method detection limits for volatile organic analytes in water (Table 6). To be noted: 5 mL water, 4 ppb; for Method Detection Limit, External Standard Method: average of three nonconsecutive-day studies; for Method Detection Limit, Internal Standard Method: d3-vinylchloride internal standard.
The nature of series [2]: Recovery of volatile organic analytes from spiked soil (Table 5). To be noted: 50 ppb, condenser -10° C.; for Recovery, Soil/Oil Water: 5 g soil + 1 g cod liver oil + water slurry; for Recovery, Soil/Oil: 5 g soil + 1 g cod liver oil, spiked using 0.2 ml water; for Recovery, Soil/Water: 5 g soil + 5 ml water slurry, 10 min.
A short description of series [3]: Method detection limits for volatile organic analytes in soil (Table 7). To be noted: 4 ppb, average of three nonconsecutive-day studies, values marked ^c: MDL exceed concentration studies.
The nature of series [4]: Recovery of volatile organic analytes from spiked water and cod liver oil/water emulsion (Table 3). To be noted: 10 min, condenser -10° C., ± one sigma; for Recovery, H2O/Oil 20 mL: 1 g cod liver oil and 20 ml water emulsion; for Recovery, H2O/Oil 5 mL: 1 gram cod liver oil and 5 ml water emulsion; for Recovery, Water 5 mL: 5 mL water, relative to internal standard d3-vinylchloride; for Recovery, Water 20 mL: 20 mL water, relative to d3-vinylchloride.

Setting [5] is: 1 gram cod liver oil, composite of 25, 50 and 200 ppb spikes, 10 min, condenser -10° C.

For the molecule `CBr` [Bromomethane], in series [1], the “Method Detection Limit, External Standard Method” value stood at 2.5 PPb and the “Method Detection Limit, Internal Standard Method” value is reported as 1.9 PPb. Also, in series [2], the “Recovery, Soil/Oil Water” value stood at 82 ± 23%; the “Recovery, Soil/Oil” value was determined as 81 ± 24%; the “Recovery, Soil/Water” value came out at 63 ± 33%. Further, in series [3], the “MDL, External Standard Method” value came to 4.9 ppb and the “MDL, Internal Standard Method” value was found to be 4.8 ppb. The “Oil Recovery” value under setting [5] was 87 ± 15%. Moreover, in series [4], the “Recovery, H2O/Oil 20 mL” value is given as 90 ± 23%; the “Recovery, H2O/Oil 5 mL” value is listed as 120 ± 20%; the “Recovery, Water 5 mL” value came to 105 ± 9%; the “Recovery, Water 20 mL” value is 99 ± 21%.

In the case of `ClC(Cl)C(Cl)Cl` [1,1,2,2-Tetrachloroethane], in series [1], the “Method Detection Limit, External Standard Method” value is given as 3.6 PPb and the “Method Detection Limit, Internal Standard Method” value was 2.8 PPb. Further, in series [2], the “Recovery, Soil/Oil Water” value was 35 ± 5%; the “Recovery, Soil/Oil” value is reported as 26 ± 9%; the “Recovery, Soil/Water” value came to 75 ± 22%. Further, in series [3], the “MDL, External Standard Method” value came to 3.2 ppb and the “MDL, Internal Standard Method” value was 2.0 ppb. The “Oil Recovery” value under setting [5] is recorded as 25 ± 10%. Moreover, in series [4], the “Recovery, H2O/Oil 20 mL” value is listed as 28 ± 7%; the “Recovery, H2O/Oil 5 mL” value stood at 34 ± 17%; the “Recovery, Water 5 mL” value was 78 ± 20%; the “Recovery, Water 20 mL” value was determined as 72 ± 20%.

For the molecule `Cl/C=C\CCl` [cis-1,3-Dichloropropene], in series [1], the “Method Detection Limit, External Standard Method” value is on record as 2.1 PPb and the “Method Detection Limit, Internal Standard Method” value amounted to 1.7 PPb. In series [2], the “Recovery, Soil/Oil Water” value stood at 53 ± 5%; the “Recovery, Soil/Oil” value amounted to 73 ± 17%; the “Recovery, Soil/Water” value worked out at 64 ± 20%. Moreover, in series [3], the “MDL, External Standard Method” value was 2.5 ppb and the “MDL, Internal Standard Method” value was 1.6 ppb. Further, under setting [5], the “Oil Recovery” value amounted to 42 ± 6%. For the same molecule, in series [4], the “Recovery, H2O/Oil 20 mL” value amounted to 57 ± 12%; the “Recovery, H2O/Oil 5 mL” value is recorded as 61 ± 9%; the “Recovery, Water 5 mL” value was determined as 94 ± 12%; the “Recovery, Water 20 mL” value worked out at 87 ± 19%.

Take `CC(Cl)Cl` [1,1-Dichloroethane]: in series [1], the “Method Detection Limit, External Standard Method” value is reported as 2.3 PPb and the “Method Detection Limit, Internal Standard Method” value is 2.4 PPb. Moreover, in series [2], the “Recovery, Soil/Oil Water” value amounted to 68 ± 4%; the “Recovery, Soil/Oil” value turned out to be 101 ± 21%; the “Recovery, Soil/Water” value was 67 ± 19%. Also, in series [3], the “MDL, External Standard Method” value was determined as 1.7 ppb and the “MDL, Internal Standard Method” value amounted to 2.1 ppb. In addition, the “Oil Recovery” value under setting [5] is 93 ± 8%. For the same molecule, in series [4], the “Recovery, H2O/Oil 20 mL” value is on record as 84 ± 12%; the “Recovery, H2O/Oil 5 mL” value was 108 ± 18%; the “Recovery, Water 5 mL” value was found to be 96 ± 11%; the “Recovery, Water 20 mL” value was found to be 98 ± 14%.

Turning to `CC(Cl)CCl` (stereo not drawn) [1,2-Dichloropropane], in series [1], the “Method Detection Limit, External Standard Method” value is on record as 2.9 PPb and the “Method Detection Limit, Internal Standard Method” value turned out to be 2.5 PPb. For the same molecule, in series [2], the “Recovery, Soil/Oil Water” value is reported as 53 ± 9%; the “Recovery, Soil/Oil” value was found to be 79 ± 14%; the “Recovery, Soil/Water” value is listed as 56 ± 17%. Also, in series [3], the “MDL, External Standard Method” value stood at 3.7 ppb and the “MDL, Internal Standard Method” value was 3.0 ppb. Further, the “Oil Recovery” value under setting [5] is on record as 47 ± 11%. Also, in series [4], the “Recovery, H2O/Oil 20 mL” value is 58 ± 16%; the “Recovery, H2O/Oil 5 mL” value is 67 ± 11%; the “Recovery, Water 5 mL” value is listed as 89 ± 14%; the “Recovery, Water 20 mL” value was 86 ± 18%.

As to `C=Cc1ccccc1` [Styrene], in series [1], the “Method Detection Limit, External Standard Method” value is 2.0 PPb and the “Method Detection Limit, Internal Standard Method” value was 1.8 PPb. For the same molecule, in series [2], the “Recovery, Soil/Oil Water” value came to 32 ± 4%; the “Recovery, Soil/Oil” value worked out at 39 ± 16%; the “Recovery, Soil/Water” value is 66 ± 19%. In series [3], the “MDL, External Standard Method” value is reported as 2.5 ppb and the “MDL, Internal Standard Method” value is 1.3 ppb. Further, the “Oil Recovery” value under setting [5] stood at 21 ± 4%. Moreover, in series [4], the “Recovery, H2O/Oil 20 mL” value was 35 ± 7%; the “Recovery, H2O/Oil 5 mL” value was found to be 34 ± 9%; the “Recovery, Water 5 mL” value came out at 89 ± 9%; the “Recovery, Water 20 mL” value is reported as 85 ± 21%.

`CCCCC(C)=O` [2-Hexanone]: in series [1], the “Method Detection Limit, External Standard Method” value stood at 4.6 PPb and the “Method Detection Limit, Internal Standard Method” value was 4.7 PPb. Also, in series [2], the “Recovery, Soil/Oil Water” value is reported as 57 ± 5%; the “Recovery, Soil/Oil” value worked out at 82 ± 19%; the “Recovery, Soil/Water” value is given as 99 ± 20%. Besides, in series [3], the “MDL, External Standard Method” value was found to be 4.6 ppb and the “MDL, Internal Standard Method” value turned out to be 3.3 ppb. Moreover, the “Oil Recovery” value under setting [5] is listed as 67 ± 9%. Further, in series [4], the “Recovery, H2O/Oil 20 mL” value is listed as 42 ± 7%; the “Recovery, H2O/Oil 5 mL” value is 66 ± 8%; the “Recovery, Water 5 mL” value turned out to be 54 ± 17%; the “Recovery, Water 20 mL” value turned out to be 56 ± 24%.

For `ClC(Cl)Br` [Bromodichloromethane], in series [1], the “Method Detection Limit, External Standard Method” value stood at 2.0 PPb and the “Method Detection Limit, Internal Standard Method” value is 2.1 PPb. Besides, in series [2], the “Recovery, Soil/Oil Water” value worked out at 50 ± 4%; the “Recovery, Soil/Oil” value came out at 69 ± 25%; the “Recovery, Soil/Water” value is listed as 49 ± 12%. Besides, in series [3], the “MDL, External Standard Method” value is listed as 2.3 ppb and the “MDL, Internal Standard Method” value is listed as 1.4 ppb. Also, the “Oil Recovery” value under setting [5] was 41 ± 5%. Moreover, in series [4], the “Recovery, H2O/Oil 20 mL” value is listed as 58 ± 17%; the “Recovery, H2O/Oil 5 mL” value was 66 ± 12%; the “Recovery, Water 5 mL” value turned out to be 92 ± 11%; the “Recovery, Water 20 mL” value is reported as 91 ± 17%.

As to `CCc1ccccc1` [Ethyl Benzene], the “Oil Recovery” value was determined as 31 ± 2. For the same molecule, in series [1], the “Method Detection Limit, External Standard Method” value is listed as 2.4 PPb and the “Method Detection Limit, Internal Standard Method” value is 1.8 PPb. Also, in series [2], the “Recovery, Soil/Oil Water” value is 56 ± 5%; the “Recovery, Soil/Oil” value is 83 ± 23%; the “Recovery, Soil/Water” value is reported as 70 ± 23%. For the same molecule, in series [3], the “MDL, External Standard Method” value was 4.1 ppb and the “MDL, Internal Standard Method” value came out at 2.8 ppb. Besides, in series [4], the “Recovery, H2O/Oil 20 mL” value worked out at 45 ± 9%; the “Recovery, H2O/Oil 5 mL” value is 40 ± 10%; the “Recovery, Water 5 mL” value was 90 ± 12%; the “Recovery, Water 20 mL” value is on record as 80 ± 18%.

On to `Cl/C=C\Cl` [Cis-1,2-Dichloroethene], for which the “Oil Recovery” value was found to be 71 ± 24. Moreover, in series [1], the “Method Detection Limit, External Standard Method” value was determined as 2.4 PPb and the “Method Detection Limit, Internal Standard Method” value is given as 2.4 PPb. In series [2], the “Recovery, Soil/Oil Water” value worked out at 69 ± 11%; the “Recovery, Soil/Oil” value is on record as 126 ± 13%; the “Recovery, Soil/Water” value is 66 ± 14%. Moreover, in series [3], the “MDL, External Standard Method” value worked out at 2.7 ppb and the “MDL, Internal Standard Method” value is 2.0 ppb. For the same molecule, in series [4], the “Recovery, H2O/Oil 20 mL” value came to 74 ± 12%; the “Recovery, H2O/Oil 5 mL” value is listed as 86 ± 11%; the “Recovery, Water 5 mL” value was 85 ± 8%; the “Recovery, Water 20 mL” value was 82 ± 18%.

For the molecule `ClC(Cl)=C(Cl)Cl` [Tetrachloroethene], in series [1], the “Method Detection Limit, External Standard Method” value came out at 1.8 PPb and the “Method Detection Limit, Internal Standard Method” value turned out to be 1.8 PPb. In series [2], the “Recovery, Soil/Oil Water” value was found to be 43 ± 6%; the “Recovery, Soil/Oil” value is recorded as 62 ± 17%; the “Recovery, Soil/Water” value stood at 56 ± 16%. For the same molecule, in series [3], the “MDL, External Standard Method” value worked out at 2.6 ppb and the “MDL, Internal Standard Method” value came to 1.4 ppb. For the same molecule, the “Oil Recovery” value under setting [5] was 30 ± 5%. For the same molecule, in series [4], the “Recovery, H2O/Oil 20 mL” value was 46 ± 8%; the “Recovery, H2O/Oil 5 mL” value is recorded as 47 ± 11%; the “Recovery, Water 5 mL” value came out at 91 ± 11%; the “Recovery, Water 20 mL” value is 85 ± 19%.

Consider `Cc1ccc(C)cc1` [Para Xylene], for which, in series [1], the “Method Detection Limit, External Standard Method” value is listed as 2.3 PPb and the “Method Detection Limit, Internal Standard Method” value is given as 1.8 PPb. For the same molecule, in series [2], the “Recovery, Soil/Oil Water” value was 58 ± 10%; the “Recovery, Soil/Oil” value is recorded as 75 ± 18%; the “Recovery, Soil/Water” value is listed as 60 ± 19%. Further, in series [3], the “MDL, External Standard Method” value turned out to be 3.9 ppb and the “MDL, Internal Standard Method” value was 2.9 ppb. The “Oil Recovery” value under setting [5] turned out to be 25 ± 3%. Also, in series [4], the “Recovery, H2O/Oil 20 mL” value came out at 43 ± 12%; the “Recovery, H2O/Oil 5 mL” value amounted to 38 ± 10%; the “Recovery, Water 5 mL” value is on record as 86 ± 8%; the “Recovery, Water 20 mL” value amounted to 82 ± 19%.

In the case of `ClCC(Cl)Cl` [1,1,2-Trichloroethane], in series [1], the “Method Detection Limit, External Standard Method” value was found to be 2.7 PPb and the “Method Detection Limit, Internal Standard Method” value is listed as 2.4 PPb. Moreover, in series [2], the “Recovery, Soil/Oil Water” value was found to be 47 ± 6%; the “Recovery, Soil/Oil” value is given as 56 ± 17%; the “Recovery, Soil/Water” value is 66 ± 20%. For the same molecule, in series [3], the “MDL, External Standard Method” value worked out at 2.8 ppb and the “MDL, Internal Standard Method” value is reported as 1.5 ppb. In addition, under setting [5], the “Oil Recovery” value is 29 ± 7%. In addition, in series [4], the “Recovery, H2O/Oil 20 mL” value is given as 81 ± 22%; the “Recovery, H2O/Oil 5 mL” value worked out at 51 ± 8%; the “Recovery, Water 5 mL” value worked out at 87 ± 14%; the “Recovery, Water 20 mL” value is listed as 83 ± 20%.
